Measured values published in publication PMC11406046.
No constants are given. Whether binding was seen depends on the method and setting. In cells and extracts the contact can be indirect. A yes stands for co-enrichment or nearness to the bait. Other partners may have been found.

Protein sequences, listed by entry. Tags and fused reporters are not part of them.
UniProt Q15327: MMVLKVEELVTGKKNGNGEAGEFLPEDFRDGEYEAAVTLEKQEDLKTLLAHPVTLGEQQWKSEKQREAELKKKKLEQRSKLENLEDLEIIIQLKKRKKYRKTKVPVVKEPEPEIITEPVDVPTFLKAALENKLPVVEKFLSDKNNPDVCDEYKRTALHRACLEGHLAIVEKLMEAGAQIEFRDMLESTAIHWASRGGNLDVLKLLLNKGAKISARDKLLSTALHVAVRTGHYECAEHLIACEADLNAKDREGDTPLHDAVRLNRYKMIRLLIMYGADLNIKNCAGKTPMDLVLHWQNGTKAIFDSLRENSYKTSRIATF
UniProt O95573: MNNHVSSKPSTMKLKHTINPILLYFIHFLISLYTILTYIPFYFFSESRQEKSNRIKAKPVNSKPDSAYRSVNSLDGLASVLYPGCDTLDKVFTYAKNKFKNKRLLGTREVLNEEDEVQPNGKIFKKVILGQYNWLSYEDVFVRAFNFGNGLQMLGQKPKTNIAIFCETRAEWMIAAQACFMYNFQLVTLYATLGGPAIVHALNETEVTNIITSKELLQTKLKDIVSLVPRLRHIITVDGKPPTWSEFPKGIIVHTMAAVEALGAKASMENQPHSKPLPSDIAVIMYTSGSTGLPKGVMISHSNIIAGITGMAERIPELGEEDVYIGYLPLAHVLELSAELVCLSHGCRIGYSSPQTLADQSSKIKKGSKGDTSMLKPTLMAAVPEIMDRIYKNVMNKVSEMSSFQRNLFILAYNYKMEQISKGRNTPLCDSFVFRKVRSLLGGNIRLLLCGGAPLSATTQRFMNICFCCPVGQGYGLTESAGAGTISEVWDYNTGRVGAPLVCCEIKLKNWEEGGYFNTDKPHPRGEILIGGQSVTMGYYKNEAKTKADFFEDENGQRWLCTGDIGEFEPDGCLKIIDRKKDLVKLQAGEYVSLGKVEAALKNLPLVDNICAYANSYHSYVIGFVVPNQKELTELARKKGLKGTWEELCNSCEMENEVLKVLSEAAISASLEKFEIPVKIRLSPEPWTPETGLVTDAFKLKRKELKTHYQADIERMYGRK
UniProt Q5T4S7: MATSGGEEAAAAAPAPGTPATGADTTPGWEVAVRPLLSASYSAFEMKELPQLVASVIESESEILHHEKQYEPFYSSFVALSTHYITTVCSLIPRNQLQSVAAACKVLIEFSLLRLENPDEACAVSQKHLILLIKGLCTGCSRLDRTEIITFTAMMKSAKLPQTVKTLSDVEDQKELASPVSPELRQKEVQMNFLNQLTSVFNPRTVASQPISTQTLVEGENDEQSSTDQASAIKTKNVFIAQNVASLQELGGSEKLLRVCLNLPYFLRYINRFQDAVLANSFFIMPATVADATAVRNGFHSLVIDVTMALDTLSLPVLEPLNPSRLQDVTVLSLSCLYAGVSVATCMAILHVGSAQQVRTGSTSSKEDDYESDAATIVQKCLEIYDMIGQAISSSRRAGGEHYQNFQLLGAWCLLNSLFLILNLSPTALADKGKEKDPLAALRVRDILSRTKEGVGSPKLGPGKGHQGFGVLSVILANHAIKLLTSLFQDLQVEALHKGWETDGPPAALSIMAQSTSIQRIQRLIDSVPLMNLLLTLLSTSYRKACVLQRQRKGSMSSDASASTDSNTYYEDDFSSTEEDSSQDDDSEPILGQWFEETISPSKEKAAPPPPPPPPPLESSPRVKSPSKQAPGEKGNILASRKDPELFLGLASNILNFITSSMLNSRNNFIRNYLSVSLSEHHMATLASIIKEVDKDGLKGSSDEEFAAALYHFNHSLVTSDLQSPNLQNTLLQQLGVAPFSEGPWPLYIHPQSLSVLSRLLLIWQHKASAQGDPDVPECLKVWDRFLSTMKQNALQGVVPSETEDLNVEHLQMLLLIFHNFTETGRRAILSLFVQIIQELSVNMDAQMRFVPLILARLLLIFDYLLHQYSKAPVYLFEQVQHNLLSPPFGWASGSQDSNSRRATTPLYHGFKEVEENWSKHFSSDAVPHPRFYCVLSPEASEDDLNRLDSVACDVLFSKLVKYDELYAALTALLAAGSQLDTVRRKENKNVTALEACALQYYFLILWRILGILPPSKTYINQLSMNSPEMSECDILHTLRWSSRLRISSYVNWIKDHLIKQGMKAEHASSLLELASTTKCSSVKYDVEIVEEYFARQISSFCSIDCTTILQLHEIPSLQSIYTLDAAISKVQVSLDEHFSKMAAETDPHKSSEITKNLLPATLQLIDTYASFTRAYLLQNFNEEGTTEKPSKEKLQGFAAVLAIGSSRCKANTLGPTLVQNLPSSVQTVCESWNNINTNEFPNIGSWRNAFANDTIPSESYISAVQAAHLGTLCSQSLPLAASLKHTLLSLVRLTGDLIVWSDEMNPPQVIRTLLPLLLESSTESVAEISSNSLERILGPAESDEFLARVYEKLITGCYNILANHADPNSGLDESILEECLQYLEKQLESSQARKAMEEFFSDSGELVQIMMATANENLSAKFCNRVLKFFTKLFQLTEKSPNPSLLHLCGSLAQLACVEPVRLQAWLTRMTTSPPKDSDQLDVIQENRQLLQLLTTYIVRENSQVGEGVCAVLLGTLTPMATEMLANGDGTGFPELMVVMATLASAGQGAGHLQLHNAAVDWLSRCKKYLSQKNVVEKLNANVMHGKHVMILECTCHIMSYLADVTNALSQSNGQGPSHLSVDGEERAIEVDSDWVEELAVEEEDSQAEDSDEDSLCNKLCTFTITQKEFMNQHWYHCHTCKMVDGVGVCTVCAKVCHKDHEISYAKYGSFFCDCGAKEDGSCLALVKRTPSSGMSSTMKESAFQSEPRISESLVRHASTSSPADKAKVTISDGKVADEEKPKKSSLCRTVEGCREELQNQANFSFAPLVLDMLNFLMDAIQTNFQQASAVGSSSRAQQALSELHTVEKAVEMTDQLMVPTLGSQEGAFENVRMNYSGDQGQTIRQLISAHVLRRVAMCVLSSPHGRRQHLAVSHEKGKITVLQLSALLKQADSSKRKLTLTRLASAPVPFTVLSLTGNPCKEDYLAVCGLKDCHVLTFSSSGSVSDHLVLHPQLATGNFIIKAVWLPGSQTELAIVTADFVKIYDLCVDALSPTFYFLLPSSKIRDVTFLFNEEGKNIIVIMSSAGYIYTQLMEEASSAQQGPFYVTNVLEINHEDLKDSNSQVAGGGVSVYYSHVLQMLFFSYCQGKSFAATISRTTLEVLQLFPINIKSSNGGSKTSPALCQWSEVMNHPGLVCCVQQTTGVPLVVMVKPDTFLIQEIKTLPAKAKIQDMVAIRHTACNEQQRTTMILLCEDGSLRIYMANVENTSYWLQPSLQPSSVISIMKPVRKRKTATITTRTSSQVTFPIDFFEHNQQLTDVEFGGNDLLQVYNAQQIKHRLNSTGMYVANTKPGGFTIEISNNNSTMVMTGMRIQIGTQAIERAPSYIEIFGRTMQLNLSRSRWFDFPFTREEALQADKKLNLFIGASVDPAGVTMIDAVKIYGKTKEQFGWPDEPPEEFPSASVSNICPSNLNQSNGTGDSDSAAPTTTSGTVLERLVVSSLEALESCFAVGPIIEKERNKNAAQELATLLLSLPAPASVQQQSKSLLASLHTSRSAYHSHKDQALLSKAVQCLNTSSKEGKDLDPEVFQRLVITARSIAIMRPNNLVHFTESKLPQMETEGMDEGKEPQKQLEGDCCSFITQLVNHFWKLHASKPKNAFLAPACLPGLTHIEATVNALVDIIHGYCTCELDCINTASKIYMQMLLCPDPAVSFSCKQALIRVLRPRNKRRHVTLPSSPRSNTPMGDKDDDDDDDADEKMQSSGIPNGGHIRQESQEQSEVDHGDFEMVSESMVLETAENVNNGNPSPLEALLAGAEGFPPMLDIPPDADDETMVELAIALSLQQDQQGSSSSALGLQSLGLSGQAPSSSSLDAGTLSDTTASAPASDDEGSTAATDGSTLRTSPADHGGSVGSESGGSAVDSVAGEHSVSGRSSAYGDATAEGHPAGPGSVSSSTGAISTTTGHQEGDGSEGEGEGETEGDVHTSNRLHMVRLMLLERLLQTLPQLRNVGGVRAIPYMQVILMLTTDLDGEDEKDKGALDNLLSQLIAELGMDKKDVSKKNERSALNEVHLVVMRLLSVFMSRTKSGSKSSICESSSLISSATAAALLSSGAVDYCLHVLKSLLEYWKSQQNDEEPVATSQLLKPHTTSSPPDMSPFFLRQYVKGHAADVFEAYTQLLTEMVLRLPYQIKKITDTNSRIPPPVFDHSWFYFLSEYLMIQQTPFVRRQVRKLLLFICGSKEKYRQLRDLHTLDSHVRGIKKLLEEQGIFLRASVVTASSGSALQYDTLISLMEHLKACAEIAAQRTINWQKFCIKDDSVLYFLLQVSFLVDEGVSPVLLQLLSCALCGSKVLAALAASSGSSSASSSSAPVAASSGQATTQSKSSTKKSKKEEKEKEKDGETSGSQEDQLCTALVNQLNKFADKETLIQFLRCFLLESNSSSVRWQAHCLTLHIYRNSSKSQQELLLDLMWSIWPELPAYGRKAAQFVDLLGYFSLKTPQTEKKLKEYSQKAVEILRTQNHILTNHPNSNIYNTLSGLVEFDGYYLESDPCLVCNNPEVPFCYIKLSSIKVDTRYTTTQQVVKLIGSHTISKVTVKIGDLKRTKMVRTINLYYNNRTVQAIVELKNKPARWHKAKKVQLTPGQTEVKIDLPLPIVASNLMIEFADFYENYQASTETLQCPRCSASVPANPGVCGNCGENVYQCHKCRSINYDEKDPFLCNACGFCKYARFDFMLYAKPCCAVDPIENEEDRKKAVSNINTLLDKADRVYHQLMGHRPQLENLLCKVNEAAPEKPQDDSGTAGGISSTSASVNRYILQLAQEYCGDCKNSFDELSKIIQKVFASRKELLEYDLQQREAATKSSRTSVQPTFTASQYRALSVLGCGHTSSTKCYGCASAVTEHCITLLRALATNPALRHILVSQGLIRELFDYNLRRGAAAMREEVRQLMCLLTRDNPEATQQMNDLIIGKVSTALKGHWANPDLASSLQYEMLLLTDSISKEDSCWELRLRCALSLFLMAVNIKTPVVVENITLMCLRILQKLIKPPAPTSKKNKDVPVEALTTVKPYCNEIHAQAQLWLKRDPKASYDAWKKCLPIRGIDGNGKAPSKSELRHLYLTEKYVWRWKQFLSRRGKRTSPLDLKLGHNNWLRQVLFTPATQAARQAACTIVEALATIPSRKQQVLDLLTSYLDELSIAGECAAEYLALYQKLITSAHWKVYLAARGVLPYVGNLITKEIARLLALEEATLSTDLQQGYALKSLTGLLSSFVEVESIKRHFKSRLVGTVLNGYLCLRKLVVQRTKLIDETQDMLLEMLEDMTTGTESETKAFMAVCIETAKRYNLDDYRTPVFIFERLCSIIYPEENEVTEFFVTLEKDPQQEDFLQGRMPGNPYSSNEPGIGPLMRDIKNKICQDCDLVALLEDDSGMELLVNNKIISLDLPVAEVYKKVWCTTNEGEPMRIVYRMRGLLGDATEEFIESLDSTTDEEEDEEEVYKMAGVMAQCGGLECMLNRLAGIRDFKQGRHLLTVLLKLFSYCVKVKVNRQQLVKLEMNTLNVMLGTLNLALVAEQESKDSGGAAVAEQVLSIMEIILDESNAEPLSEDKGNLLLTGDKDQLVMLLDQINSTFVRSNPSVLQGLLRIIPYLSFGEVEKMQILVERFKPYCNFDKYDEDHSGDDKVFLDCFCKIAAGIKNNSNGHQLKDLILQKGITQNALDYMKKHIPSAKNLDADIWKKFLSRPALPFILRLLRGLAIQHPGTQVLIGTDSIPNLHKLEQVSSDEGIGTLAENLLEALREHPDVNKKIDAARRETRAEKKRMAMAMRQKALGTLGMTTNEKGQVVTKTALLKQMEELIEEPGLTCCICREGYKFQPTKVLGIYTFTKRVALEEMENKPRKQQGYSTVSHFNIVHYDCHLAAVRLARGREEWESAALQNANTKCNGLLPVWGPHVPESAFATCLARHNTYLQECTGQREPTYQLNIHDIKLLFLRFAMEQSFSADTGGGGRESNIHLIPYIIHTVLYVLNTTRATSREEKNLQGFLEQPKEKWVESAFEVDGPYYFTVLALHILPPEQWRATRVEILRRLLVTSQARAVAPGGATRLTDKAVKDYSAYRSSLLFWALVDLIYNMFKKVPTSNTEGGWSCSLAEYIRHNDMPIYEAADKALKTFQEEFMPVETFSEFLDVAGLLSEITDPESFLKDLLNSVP

Molecular target: FLAG-tagged ANKRD1 (ankyrin repeat domain 1), wild type (human) (UniProt Q15327)
Assay: affinity purification with mass spectrometry; whole-cell lysates immunoprecipitated with FLAG primary antibodies, products analysed by mass spectrometry (IP-MS); cutoff = 4

Row | binding | Substance
1 | binds | ACSL3 (acyl-coenzyme A synthetase long-chain family member 3), endogenous in HK-2 cells (from UniProt O95573 1-720)
2 | binds | TRIM25 (tripartite motif containing 25), endogenous in HK-2 cells (from UniProt Q14258 1-630) (enzyme)
3 | binds | UBR4 (from UniProt Q5T4S7 1-5183) (enzyme)
